Results taken from PMC5706891.
No constants are given. Whether binding was seen depends on the method and setting. Binding seen in cells or lysates may run through a third protein. Some results given as binding are weak or reduced against the parent protein; the word gives no strength. For part of these data: Sequences can lack the tags named with a protein. Each block holds one molecule with its values, some of them ahead of it.

Protein sequences, listed by entry. Tags and fused reporters are not part of them.
UniProt P09874: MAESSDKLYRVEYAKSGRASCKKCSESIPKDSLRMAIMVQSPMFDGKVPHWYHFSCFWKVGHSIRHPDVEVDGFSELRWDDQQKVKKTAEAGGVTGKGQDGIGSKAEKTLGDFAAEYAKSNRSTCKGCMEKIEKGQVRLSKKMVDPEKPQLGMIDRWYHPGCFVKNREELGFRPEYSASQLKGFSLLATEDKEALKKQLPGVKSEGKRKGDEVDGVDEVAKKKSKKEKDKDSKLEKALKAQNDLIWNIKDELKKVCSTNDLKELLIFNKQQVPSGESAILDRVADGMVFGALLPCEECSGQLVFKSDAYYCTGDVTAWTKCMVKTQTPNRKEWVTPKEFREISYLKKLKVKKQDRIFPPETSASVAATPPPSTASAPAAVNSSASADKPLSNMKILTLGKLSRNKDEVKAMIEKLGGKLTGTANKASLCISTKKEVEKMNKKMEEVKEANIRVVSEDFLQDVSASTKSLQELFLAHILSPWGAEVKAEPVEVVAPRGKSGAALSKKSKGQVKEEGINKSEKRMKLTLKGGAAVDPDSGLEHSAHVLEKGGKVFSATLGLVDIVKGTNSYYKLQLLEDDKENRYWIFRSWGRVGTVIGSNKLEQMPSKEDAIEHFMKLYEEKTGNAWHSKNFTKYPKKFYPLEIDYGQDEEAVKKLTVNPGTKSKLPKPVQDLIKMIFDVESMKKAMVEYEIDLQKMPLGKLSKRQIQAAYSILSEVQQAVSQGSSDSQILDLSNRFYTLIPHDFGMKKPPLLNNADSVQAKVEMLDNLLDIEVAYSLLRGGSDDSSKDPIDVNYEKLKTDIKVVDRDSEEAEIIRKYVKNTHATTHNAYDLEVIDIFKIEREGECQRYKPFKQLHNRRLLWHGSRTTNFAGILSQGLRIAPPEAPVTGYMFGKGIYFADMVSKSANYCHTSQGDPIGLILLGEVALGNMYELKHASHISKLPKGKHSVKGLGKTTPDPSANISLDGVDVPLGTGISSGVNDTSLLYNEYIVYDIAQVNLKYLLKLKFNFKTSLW

How the values were obtained:
[1] = target: T1, Flag-RNF144A (ring finger protein 144A) (human) (UniProt P50876); assay: co-IP; HEK293T cells transfected with Flag-RNF144A and HA-PARP1 alone or in combination, 48 h, IP with anti-Flag antibody, immunoblotting; NP-40 lysis buffer, overnight at 4 °C
T1 sequence: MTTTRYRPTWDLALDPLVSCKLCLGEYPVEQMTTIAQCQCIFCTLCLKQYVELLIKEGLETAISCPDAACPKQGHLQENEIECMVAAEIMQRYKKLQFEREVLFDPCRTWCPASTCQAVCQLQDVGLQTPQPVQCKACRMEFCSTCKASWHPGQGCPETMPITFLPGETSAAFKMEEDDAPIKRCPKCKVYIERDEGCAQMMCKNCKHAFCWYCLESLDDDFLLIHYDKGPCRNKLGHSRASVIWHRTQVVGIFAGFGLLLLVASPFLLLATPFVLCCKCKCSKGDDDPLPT

[2] = target: T2, GST-RNF144A C-terminal region (residues 253-292) containing the transmembrane domain (human) (UniProt P50876); assay: pull-down; GST or GST-RNF144A proteins (full length or deletion constructs) on glutathione-sepharose beads incubated with total cellular lysates of HBL100 and BT474 cells at 4 °C for 4 h, immunoblotting with anti-PARP1 antibody; only the target purified
T2 sequence: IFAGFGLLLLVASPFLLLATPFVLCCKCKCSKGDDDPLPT

[3] = target: Poly(ADP-ribose) polymerase 1 (PARP1), endogenous (human (endogenous in HEK293T, HBL100, BT474)) (UniProt P09874); assay: co-IP; endogenous proteins in HBL100 and BT474 cells treated with 10 μM MG-132 for 4 h, IP with anti-PARP1 antibody, immunoblotting; NP-40 lysis buffer, overnight at 4 °C

binding [1]: binds
Molecule: HA-PARP1 (from UniProt P09874 1-1014)

binding [2]: binds
Molecule: Poly(ADP-ribose) polymerase 1 (PARP1), endogenous (from UniProt P09874 1-1014)

binding [3]: binds
B1: Ring finger protein 144A (RNF144A), endogenous (enzyme, UniProt P50876 1-292)
chain: MTTTRYRPTWDLALDPLVSCKLCLGEYPVEQMTTIAQCQCIFCTLCLKQYVELLIKEGLETAISCPDAACPKQGHLQENEIECMVAAEIMQRYKKLQFEREVLFDPCRTWCPASTCQAVCQLQDVGLQTPQPVQCKACRMEFCSTCKASWHPGQGCPETMPITFLPGETSAAFKMEEDDAPIKRCPKCKVYIERDEGCAQMMCKNCKHAFCWYCLESLDDDFLLIHYDKGPCRNKLGHSRASVIWHRTQVVGIFAGFGLLLLVASPFLLLATPFVLCCKCKCSKGDDDPLPT
